According to paper PMC10163288:
The list shows a part of the results.

B1: il2ra_site1_3nfp_sap_16_mot_HHH_b1_01159_af2_000000075_0001_1_20_H_._HHH_b2_04724_af2_0001_0000100001_0000001_0_0001_af2pred_0001_af2pred_1 (protein)
chain: SSSSDSVREFVRRFIEELLKRGNKERAEKTLERFEKDAERARDEEEKELLEELEELLERLSSSSS
B2: il2ra_site1_1z92_sap_22_mot_00a0fa73c9dbd8f1f8571bd9de0225d9_0001_af2_000000011_0001_1_12_H_._HHH_b1_04875_0001_0000100004_0000001_1_0001_af2pred_0001_af2pred_1 (protein)
chain: SSSSTKTEEALELAERQLELLVRLGDRERLKNNLKMAKIAARLLNDPEVEREIEELEEEGSSSSS
B3: il2ra_site1_2b5i_sap_16_mot_HHH_b1_05017_af2_000000115_0001_1_18_H_._HHH_b2_00737_af2_0001_0000300018_0000001_0_0001_af2pred_0001_af2pred (protein)
chain: SSSSTEETEELYELFEEANELDRNGNPEEARKVLEEALELAEEAGSPFARSIRIALEQFKSSSSS
B4: il2ra_site1_2b5i_sap_9_mot_HHH_b1_06258_af2_000000112_0001_42_56_H_._HHH_b1_04022_af2_0001_0000200017_0000001_0_0001_af2pred_dldesign_0_af2pred (protein)
chain: SSSSDPVAEALRLFLKADELFKAGKEEEALEALKEALKLAEKLGSKLLIRTIKSAIKNVESSSSS
B5: il2ra_site2_3nfp_sap_20_mot_HHH_b1_03818_000000217_0001_1_20_H_._HHH_b1_03372_af2_0001_0000600033_0000001_0_0001 (protein)
chain: SSSSDDREAAVRSALRLAEQLYEEGDPELAENALEWARAVALLWDNPELEKEVQKVEEELKSSSS
B6: il2ra_site2_3nfp_normal_mot_HHH_b2_00429_000000100_0001_21_37_H_._fc954f5bc8b30fbfb24795ed7ddcaf20_0001_af2_0001_0000100001_0000001_0 (protein)
chain: PEELVEEIIELIERGDPRARELASRLALLAYENNDHELFAVAADLLAALLEGDPHYLEEAERSLN
B7: il2ra_site1_3nfp_normal_mot_46d73865503fbedcaf0f3a45445d594c_0001_af2_000000151_0001_1_12_H_._HEEHE_1653_0001_0000300017_0000001_0 (protein)
chain: DEEVDSRAIRKLLERAAKVPSVEVEVENNKVTVTVEGNDEAARLAEEAARQAAKSLKVSVEVHEE
B8: il2ra_site1_1z92_normal_mot_ae822554cddc87a57d04fcdb10ee4bf1_0001_1_000000099_0001_1_12_H_._HHH_b2_00624_af2_0001_0000100002_0000001_0_af2pred_0001_af2pred (protein)
chain: SSSSSDDSRRFSELLRRALKALSEGNPEEAKELLEEAEKIAEKNGDEKAREFIERLLERAGSSSS
B9: il2ra_site2_2erj_sap_11_mot_HHH_b2_00525_af2_000000030_0001_1_19_H_._HHH_b1_08252_0001_0000100001_0000001_0_0001 (protein)
chain: SSSSDERLHELFELASRLMHLASNGDEEEFEKLARELERLAEELKSRNVEEIVKNLRRQLSSSSS
B10: il2ra_site2_3nfp_sap_17_mot_HHH_b1_05628_af2_000000064_0001_19_35_H_._HHH_b1_04256_0001_0000500019_0000001_0_0001_af2pred_0001_af2pred (protein)
chain: DVEKRLWQLARERNNPDVFIALLIIRLLKEEGVPPEEIEQRVEEVIKKAGLPPEIEELLREAVRE
B11: il2ra_site2_2erj_sap_20_mot_HHH_b2_07792_af2_000000252_0001_18_34_H_._HHH_b2_00442_af2_0001_0000600024_0000001_0_0001 (protein)
chain: SSSSNEELRRLYELLEELLKLLHEGDEEEFEKVLEEAKELAKRLQSDTAKEVLELLERSLSSSSS
B12: il2ra_site1_3nfp_normal_mot_HHH_b1_01231_af2_000000170_0001_1_16_H_._HHH_b1_08672_af2_0001_0001700032_0000001_0_af2pred_0001_af2pred_swapped (protein)
chain: SSSSSEKEEEAKRIARLLLELALKGDREELEELLEKLRELAEELNNPYLERLLREVERLLSSSSS
B13: il2ra_site1_2b5i_normal_mot_HHH_b1_03543_af2_000000000_0001_42_54_H_._HHH_b1_06556_af2_0001_0000400053_0000001_0 (protein)
chain: SSSSDEEVEELFLQASRLFLNGNPEEARKVVEEALKLAEELGDEKQREELEFALERIRRSESSSS
B14: il2ra_site1_1z92_sap_13_mot_HHH_b2_00249_af2_000000052_0001_39_52_H_._HHH_b2_05896_af2_0001_0000200005_0000001_0_0001 (protein)
chain: SSSSSDEYDERIQELFHEASRITDPEEVRKLLEEAIELAREANDPRLLRDLEHFLEMRRGSSSSS
B15: il2ra_site2_2erj_normal_mot_6bd1339e93f6fdda22195c76da45ec5d_0001_000000136_0001_37_51_H_._HHH_b2_02164_0001_0000700010_0000001_0_af2pred_0001_af2pred (protein)
chain: SSSSSSELEEQVEELLEEAKRIEDKQEAIEVVLEAAHLAARAQNDELLEEVIKLSQELASSSSSS
B16: il2ra_site1_2b5i_normal_mot_HHH_b1_06258_af2_000000112_0001_42_56_H_._HHH_b1_00260_0001_0000100006_0000001_0_af2pred_0001_af2pred (protein)
chain: SSSSDEEEHEVDRLYIEASRAFLNGNPEEAQRLLEEALELAREIGDPLAEEQIRHMLELLRSSSS
B17: il2ra_site1_2b5i_normal_mot_f5ff40796168375b462bec8614a1db4a_0001_1_000000138_0001_53_65_H_._HHH_b1_00792_af2_0001_0000200014_0000001_0_af2pred_0001_af2pred (protein)
chain: SSSSDTIRHLIEALLKEAEELREKGNPERARAVLHLALATARAYNDEEAEERVKEVEERLRSSSS
B18: il2ra_site1_3nfp_normal_mot_HHH_b1_03753_af2_000000088_0001_41_54_H_._HHH_b2_07336_0001_0000200012_0000001_0_af2pred_0001_af2pred (protein)
chain: SSSSSEELSELRRRAMEAARRGDLEEARRLLEEAEEIARELGDEKQLEKIEHDLKLIELFESSSS
B19: il2ra_site2_3nfp_sap_19_mot_HHH_b1_06238_000000047_0001_1_16_H_._HHH_b2_02140_0001_0000100001_0000001_0_0001 (protein)
chain: SSSSDESEEYLRAALELAKEAIELGDREAAEKTLKLIRLAAEDANDEEALELAEELLREVGSSSS
B20: il2ra_site1_2b5i_normal_mot_HHH_b2_04910_000000118_0001_1_19_H_._HHH_b1_07627_af2_0001_0000400017_0000001_0_af2pred_dldesign_0_af2pred (protein)
chain: SSSSSALAEALALFLKADELKKAGKYEEAKKLLEEALRLAEAAGANSLARMIKLALKDLESSSSS
B21: il2ra_site1_3nfp_normal_mot_HHH_b1_00630_af2_000000193_0001_42_55_H_._HHH_b2_03971_0001_0000500036_0000001_0 (protein)
chain: SSSSTEELHHLSRLVERAYKALAEGNEEEVRELLEEARELAEELNDKVARRLLREIEKRLSSSSS
B22: il2ra_site1_2b5i_sap_10_mot_HHH_b1_06833_000000207_0001_1_19_H_._1119cc3ece11f8544cf99e05e324817a_0001_1_0001_0000300025_0000001_1_0001 (protein)
chain: SSSSSEEDRELVRFIWRLFWEFGLSHEQSRILDRVAVELLDEGLSPEEIKEILEEVAKELSSSSS
B23: il2ra_site2_2erj_sap_30_mot_3b06bd03f1c6bceadc68eab912867b79_0001_000000296_0001_36_50_H_._HHH_b1_05743_af2_0001_0000300011_0000001_0_0001 (protein)
chain: SSSSDEAEEKVEELLEEAREAYEKGDLHLVFELAVEAMRVASENNDREALRLVAEFLEELSSSSS
B24: il2ra_site2_3nfp_normal_mot_HHH_b1_02297_000000279_0001_41_58_H_._HHH_b2_08082_af2_0001_0000100002_0000001_0 (protein)
chain: SSSSDEEEIERLLERVEELIQQGDPEEARELLRELAVLAYENNDFELFARVNELLELLHRSSSSS

What follows are binders tested against il2ra, P01589 (assay: yeast display titration).

Apparent Kd, inactive:
B1 no binding seen
B2 no binding seen
B3 no binding seen
B4 no binding seen
B5 no binding seen
B6 no binding seen
B7 no binding seen
B8 no binding seen
B9 no binding seen
B10 no binding seen
B11 no binding seen
B12 no binding seen
B13 no binding seen
B14 no binding seen
B15 no binding seen
B16 no binding seen
B17 no binding seen
B18 no binding seen
B19 no binding seen
B20 no binding seen
B21 no binding seen
B22 no binding seen
B23 no binding seen
B24 no binding seen

Quoted at random: 2 records from the list.
Apparent Kd, inactive:
B1 no binding seen
B14 no binding seen
